Results deposited as PubChem BioAssay AID493246 (Drosophila RNAi Screening Center, 2011)

Assay: 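Genes fly cells need to grow and stay alive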 (primary screen)
System: Drosophila Kc and S2R+ cells
Reagent: long dsRNA against Drosophila genes
Measured: 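Cell number per well after knock-down, printed as raw plate values; calls were based on per-plate z-scores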
Reading the numbers: Kc cell number and S2R+ cell number: higher = more cells remaining
Rule for the call: 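Counted as a hit if cell number falls by a z-score of at least 3 within its plate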
In all, the deposit lists about 21,000 reagents; this is a random part of those that have a named target and a result. Of all reagents, 429 (2%) were called active. 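Values are raw and not normalised between plates; calls rest on per-plate z-scores that were not deposited.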 Entries without a mark were called inactive. The numbers tell different reagents against one gene apart. The record does not give: the amount of reagent, the time to read-out.

gene knocked down	reagent no.	Kc cell number, rep 1	Kc cell number, rep 2	S2R+ cell number, rep 1	S2R+ cell number, rep 2
CG41520	1	1.22e6	1.34e6	1.06e6	1.12e6
CG41520	2	1.46e6	1.49e6	1.04e6	1.16e6
vtd	1	1.43e6	1.39e6	1.02e6	1.17e6
CG3085	1	1.33e6	1.38e6	1.14e6	1.17e6
Vps36	1	1.29e6	1.35e6	1.30e6	1.40e6
CG1902	1	1.46e6	1.49e6	1.09e6	1.15e6
Pomp	1	7.87e5 (active)	9.05e5	2.93e5	3.30e5
ND-49L	1	1.75e6	1.86e6	1.04e6	1.13e6
Oga	1	1.57e6	1.68e6	1.24e6	1.54e6
RpS9	1	8.83e5 (active)	1.01e6	9.27e5	9.39e5
P5cr	1	1.39e6	1.36e6	1.09e6	1.20e6
brv1	1	1.40e6	1.42e6	1.22e6	1.33e6
Sec22	1	5.81e5		7.38e5	
Cyp4ac3	1	1.38e6	1.72e6	8.29e5	3.76e5
MICU3	1	1.38e6	1.42e6	1.05e6	1.13e6
MICU3	2	1.57e6	1.64e6	1.23e6	1.23e6
amon	1	1.27e6	1.54e6	1.13e6	1.15e6
amon	2	1.32e6	1.32e6	9.88e5	1.12e6
CG5001	1	1.59e6	1.64e6	9.27e5	1.07e6
CG7675	1	1.59e6	1.66e6	1.29e6	1.37e6
Ptth	1	1.51e6	1.59e6	1.05e6	1.12e6
CG8206	1	4.92e5		8.24e5	
Sec71	1	1.47e6	1.54e6	1.13e6	1.27e6
CG13067	1	1.33e6	1.58e6	1.33e6	1.63e6
CG18666	1	1.74e6	1.84e6	1.20e6	1.34e6
dgt2	1	1.66e6	1.72e6	1.24e6	1.42e6
wls	1	1.38e6	1.51e6	1.35e6	1.13e6
Cyp6v1	1	1.56e6	1.55e6	9.99e5	1.02e6
mei-41	1	1.41e6	1.43e6	1.02e6	1.14e6
CG42680	1	1.65e6	1.67e6	9.84e5	1.21e6
CG18178	1	1.48e6	1.59e6	1.39e6	1.28e6
Ccp84Ab	1	1.39e6	1.49e6	1.17e6	1.25e6
CG2663	1	1.59e6	1.79e6	1.31e6	1.36e6
Tl	1	5.16e5		8.09e5	
E(spl)mgamma-HLH	1	1.51e6	1.70e6	1.03e6	1.20e6
aqz	1	1.33e6	1.37e6	1.20e6	1.34e6
CG31465	1	1.52e6	1.52e6	1.21e6	1.22e6
SPH93	1	1.67e6	1.68e6	1.41e6	1.54e6
CG10560	1	1.80e6	1.84e6	1.03e6	1.16e6

8 entries from above in another layout:
gene knocked down,reagent no.,"Kc cell number, rep 1","Kc cell number, rep 2","S2R+ cell number, rep 1","S2R+ cell number, rep 2"
Oga,1,1.57e6,1.68e6,1.24e6,1.54e6
RpS9,1,8.83e5 (active),1.01e6,9.27e5,9.39e5
P5cr,1,1.39e6,1.36e6,1.09e6,1.20e6
brv1,1,1.40e6,1.42e6,1.22e6,1.33e6
Sec22,1,5.81e5,,7.38e5,
Cyp4ac3,1,1.38e6,1.72e6,8.29e5,3.76e5
MICU3,1,1.38e6,1.42e6,1.05e6,1.13e6
MICU3,2,1.57e6,1.64e6,1.23e6,1.23e6

More entries follow:
gene knocked down	reagent no.	Kc cell number, rep 1	Kc cell number, rep 2	S2R+ cell number, rep 1	S2R+ cell number, rep 2
CG5946	1	1.46e6	1.58e6	1.24e6	1.32e6
neb	1	1.29e6	1.47e6	1.20e6	9.53e5
CG13367	1	1.68e6	1.65e6	9.76e5	1.11e6
CG13367	2	1.74e6	1.82e6	9.76e5	1.20e6
Dnaaf5	1	1.47e6	1.64e6	1.06e6	1.23e6
cad	1	8.30e5 (active)	9.13e5	4.33e5	4.01e5
Impbeta11	1	1.64e6	1.71e6	1.37e6	1.53e6
CG17575	1	1.64e6	1.71e6	1.36e6	1.55e6
CG7295	1	1.41e6	1.48e6	1.04e6	1.18e6
NimC2	1	1.55e6	1.60e6	1.23e6	1.34e6
CG8343	1	1.31e6	1.37e6	1.10e6	1.17e6
CG16985	1	1.43e6	1.25e6	1.04e6	1.26e6
Mmp2	1	1.66e6	1.75e6	1.36e6	1.56e6
CG43333	1	1.65e6	1.72e6	1.20e6	1.40e6
etaTry	1	1.46e6	1.48e6	1.20e6	1.34e6
CG8321	1	1.42e6	1.44e6	1.10e6	1.10e6
dysc	1	1.34e6	1.36e6	9.81e5	1.13e6
dysc	2	1.70e6	1.81e6	1.29e6	1.38e6
Lztr1	1	1.46e6	1.42e6	1.02e6	1.05e6
Lztr1	2	1.45e6	1.45e6	9.75e5	1.09e6
